B1: Edc4 (zebrafish, endogenous) (protein, UniProt Q1LUT1 1-1384)
chain: MASSSSMDIEGATQHLRDILKLDRPGNSAEASLVESQRKPSFNGELNGVLGSDLMGAAMVEPTVHNSDKLNGQDTQTICLSGDDGSICVPIRANIVEIVSSRDSSIDSKARGSNKVKIQPVAKYDWEHKYYYGNLIAVSNTYLAYAIRGANNHSMIRVLHLSSTERSLLKGFTGAVTDLAFAHLDSTLLGCVDEAGNMFIWQLTSHSSKIQDEVIVHIRRPEDTPLNSNRRLIWCPFIPEDNDESPEDACQTLALLHEDRAEVWDLDILRSNNSSWPVDATELKEGFITIRGHAARISEGALSPDGTVLATASHDGYVKFWQIYIEGQDQPRCLHEWQPHNGQPLSCLLFCDNHKKQDPDVPFWRFLITGADQNQELKMWCTVSWTCLQTIRFSPDPFNCGVLPSLKASLDLSAEFLILSDVQRKVLYVMELLQDQEKGRASFTAVSEFLLTHPVLSFGVQDVSRARLRHTEVLPPEEESESMTAEGNQGTSESRSGIQIKLYCVHTKSLQDVQIWFQPNQGDSSSLFMPQSGSQDGFSFSDPLADLNVEAMSSDKESGDSGSQNDLSKILPLPSPADFMSPAPSALPKLMTPDAFMTPSASMPASPGSSASSLTIVTAMSSSDSGARGGDDLTQSPKMSVECVNSSFANAGSPRSNSILISGLGENIQVSPPNPPLSLDLQAIDPMVVPQASPTRARSPDVISSASTAMSQDIPEIASETLQRGLSGANADSGPILHSDSMASAASILHLLSPRARSSAEHSLLPLELGAASVDGEQRLSNTPSLLETALSQENAGAAGGSCSDSSVNHAWPAAPDITRETRNSLRDNGLGDCSREEIKDRHISSPYHRRTYHLTQNDSQDASAEQSDHDDEVASLASSSGNCGPRSSHRLPVKDWKTSPRSSPKLKRKSKKDEGESSQSRQIESQMSTEVQDELLQMLRSQQREIAELRQNQLDLLQRVTSHMDAVQSSMMAHIEHAMLAQQEQEQRRMERILVEGQSRNQQLQDQLVQQLVQTLNNSLCNRLEKVLREEMKKTVPQTISKSLEPVTGQMNSTIAAKLTAVEGALKENVTKVVKSKNTTDAIGRAAAEAMQGPIQAAYKETFQSIVLPVFERGCQSMFQQINDSFKQGTNEYIQQLETHIKNRKQRDQDTRDPVIGQLQQMIDSLQSSQDQLASTVTASVSSDVQHQLHMIVGNLQDSILTQVQRIVKGEVSLAMKEQQAAVTSSIMQAMRSAAGTPVPSAHLDYQAQQASILQLLQQGQLNEAFQQALSAADLNLVLYVCETIDSQQVFGQQPCPLHQAVLLSLIQQLSTNLSTRTELKISYLEDAVMNLDHGDPVTRDHMSAVLTQVRQKLFLFLQQDAHSPMSKRARRLMMMLQGLVNH

By UniProt entry, the sequences of proteins in these tests, tags left out.
UniProt Q803B9: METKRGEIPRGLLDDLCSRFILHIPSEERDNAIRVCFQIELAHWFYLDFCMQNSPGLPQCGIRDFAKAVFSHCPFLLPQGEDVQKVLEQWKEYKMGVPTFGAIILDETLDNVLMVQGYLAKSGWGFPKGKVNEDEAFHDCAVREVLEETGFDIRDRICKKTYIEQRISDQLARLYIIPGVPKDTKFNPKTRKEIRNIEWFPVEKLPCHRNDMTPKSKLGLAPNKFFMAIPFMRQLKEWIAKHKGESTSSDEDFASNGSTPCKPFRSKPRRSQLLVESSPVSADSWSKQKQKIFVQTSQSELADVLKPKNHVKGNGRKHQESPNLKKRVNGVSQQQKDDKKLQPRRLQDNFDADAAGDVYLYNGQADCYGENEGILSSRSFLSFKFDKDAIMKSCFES
UniProt A0ACM8QBM4: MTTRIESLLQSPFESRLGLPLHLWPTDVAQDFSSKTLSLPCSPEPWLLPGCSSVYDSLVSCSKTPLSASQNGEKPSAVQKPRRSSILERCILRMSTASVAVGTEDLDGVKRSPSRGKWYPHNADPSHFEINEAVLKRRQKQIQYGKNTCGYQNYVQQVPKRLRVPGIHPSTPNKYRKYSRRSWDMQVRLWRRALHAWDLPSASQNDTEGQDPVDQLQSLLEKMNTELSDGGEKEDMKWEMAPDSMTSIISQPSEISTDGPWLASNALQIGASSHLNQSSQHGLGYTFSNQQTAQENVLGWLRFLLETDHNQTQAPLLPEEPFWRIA

These are yes or no findings as the source states them, for the method shown. In cells and extracts the contact can be indirect. These calls come from enrichment with a bait or labelling near it, and not all partners need be listed. For some of these results: No binding means not detected with the bait. Tags and fused reporters may be left off the sequences shown.

For one test, the target named is T1, 3xflag-sfGFP-eIF4E1b (zebrafish) (zebrafish) (UniProt Q9PW28).
T1 sequence: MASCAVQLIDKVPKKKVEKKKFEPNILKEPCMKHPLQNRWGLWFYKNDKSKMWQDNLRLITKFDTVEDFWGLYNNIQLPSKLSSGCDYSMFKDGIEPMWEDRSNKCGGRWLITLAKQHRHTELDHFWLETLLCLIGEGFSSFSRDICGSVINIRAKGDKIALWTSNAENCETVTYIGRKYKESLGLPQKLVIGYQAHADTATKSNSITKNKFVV
Kind of test: affinity purification with mass spectrometry.
eIF4ENIF1 (zebrafish, endogenous): the binding result was “binds”.

A further test addresses T1, 3xflag-sfGFP-eIF4E1b (zebrafish) (zebrafish). The experiment in a line: affinity purification with mass spectrometry. The source holds these as a separate data set.
As for Dcp1 (zebrafish, endogenous), the binding entry is given as “no binding”.
Still for that read-out and setting: as for “Dcp2 (zebrafish, endogenous) (from UniProt Q803B9 1-397)”, the entry is “no binding”; as for SLBP (zebrafish, endogenous), “binds”.
For the molecule “SLBP2 (zebrafish, endogenous) (from UniProt A0ACM8QBM4 1-326)”, the binding entry is “binds”.
The same measure, in the same setting: with eIF4ENIF1 (zebrafish, endogenous) the entry was “binds”.
Still for that read-out and setting: as for B1, the entry is “no binding”.

(Values after publication doi:10.1101/2023.06.10.544440.)
